The assay concerns the target T1, NRF2 (human (endogenous in DU-145)) (UniProt Q16236).
T1 sequence: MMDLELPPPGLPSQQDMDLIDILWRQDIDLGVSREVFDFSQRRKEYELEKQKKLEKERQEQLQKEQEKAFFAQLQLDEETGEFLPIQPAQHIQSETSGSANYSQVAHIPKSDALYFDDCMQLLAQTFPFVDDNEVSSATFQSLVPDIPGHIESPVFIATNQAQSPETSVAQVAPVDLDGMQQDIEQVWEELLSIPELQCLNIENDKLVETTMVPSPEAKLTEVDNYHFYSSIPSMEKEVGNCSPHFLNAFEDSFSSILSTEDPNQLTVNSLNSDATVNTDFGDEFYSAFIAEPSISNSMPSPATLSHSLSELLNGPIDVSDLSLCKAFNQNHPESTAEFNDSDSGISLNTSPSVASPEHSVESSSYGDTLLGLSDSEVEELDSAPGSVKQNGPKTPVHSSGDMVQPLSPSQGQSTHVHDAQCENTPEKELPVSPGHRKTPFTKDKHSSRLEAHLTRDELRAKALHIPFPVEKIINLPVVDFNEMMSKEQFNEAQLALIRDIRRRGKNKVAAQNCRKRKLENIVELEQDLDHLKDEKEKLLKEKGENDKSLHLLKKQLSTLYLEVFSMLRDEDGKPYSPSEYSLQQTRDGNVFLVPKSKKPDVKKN
The assay can be described thus: re-ChIP (sequential chromatin immunoprecipitation); formaldehyde cross-linked soluble chromatin precipitated with a first antibody (anti-MUC1-C or anti-NRF2), then reprecipitated with a second antibody or control IgG; read out by qPCR of promoter or intron regions (PBRM1, ARID2, BRD7, SLC7A11, G6PD); DU-145 and LNCaP-AI cells. (Quantitative PCR measures a nucleic acid by following its amplification.)

Chains of the proteins cited; added tags and fusions are not shown.
UniProt Q86U86: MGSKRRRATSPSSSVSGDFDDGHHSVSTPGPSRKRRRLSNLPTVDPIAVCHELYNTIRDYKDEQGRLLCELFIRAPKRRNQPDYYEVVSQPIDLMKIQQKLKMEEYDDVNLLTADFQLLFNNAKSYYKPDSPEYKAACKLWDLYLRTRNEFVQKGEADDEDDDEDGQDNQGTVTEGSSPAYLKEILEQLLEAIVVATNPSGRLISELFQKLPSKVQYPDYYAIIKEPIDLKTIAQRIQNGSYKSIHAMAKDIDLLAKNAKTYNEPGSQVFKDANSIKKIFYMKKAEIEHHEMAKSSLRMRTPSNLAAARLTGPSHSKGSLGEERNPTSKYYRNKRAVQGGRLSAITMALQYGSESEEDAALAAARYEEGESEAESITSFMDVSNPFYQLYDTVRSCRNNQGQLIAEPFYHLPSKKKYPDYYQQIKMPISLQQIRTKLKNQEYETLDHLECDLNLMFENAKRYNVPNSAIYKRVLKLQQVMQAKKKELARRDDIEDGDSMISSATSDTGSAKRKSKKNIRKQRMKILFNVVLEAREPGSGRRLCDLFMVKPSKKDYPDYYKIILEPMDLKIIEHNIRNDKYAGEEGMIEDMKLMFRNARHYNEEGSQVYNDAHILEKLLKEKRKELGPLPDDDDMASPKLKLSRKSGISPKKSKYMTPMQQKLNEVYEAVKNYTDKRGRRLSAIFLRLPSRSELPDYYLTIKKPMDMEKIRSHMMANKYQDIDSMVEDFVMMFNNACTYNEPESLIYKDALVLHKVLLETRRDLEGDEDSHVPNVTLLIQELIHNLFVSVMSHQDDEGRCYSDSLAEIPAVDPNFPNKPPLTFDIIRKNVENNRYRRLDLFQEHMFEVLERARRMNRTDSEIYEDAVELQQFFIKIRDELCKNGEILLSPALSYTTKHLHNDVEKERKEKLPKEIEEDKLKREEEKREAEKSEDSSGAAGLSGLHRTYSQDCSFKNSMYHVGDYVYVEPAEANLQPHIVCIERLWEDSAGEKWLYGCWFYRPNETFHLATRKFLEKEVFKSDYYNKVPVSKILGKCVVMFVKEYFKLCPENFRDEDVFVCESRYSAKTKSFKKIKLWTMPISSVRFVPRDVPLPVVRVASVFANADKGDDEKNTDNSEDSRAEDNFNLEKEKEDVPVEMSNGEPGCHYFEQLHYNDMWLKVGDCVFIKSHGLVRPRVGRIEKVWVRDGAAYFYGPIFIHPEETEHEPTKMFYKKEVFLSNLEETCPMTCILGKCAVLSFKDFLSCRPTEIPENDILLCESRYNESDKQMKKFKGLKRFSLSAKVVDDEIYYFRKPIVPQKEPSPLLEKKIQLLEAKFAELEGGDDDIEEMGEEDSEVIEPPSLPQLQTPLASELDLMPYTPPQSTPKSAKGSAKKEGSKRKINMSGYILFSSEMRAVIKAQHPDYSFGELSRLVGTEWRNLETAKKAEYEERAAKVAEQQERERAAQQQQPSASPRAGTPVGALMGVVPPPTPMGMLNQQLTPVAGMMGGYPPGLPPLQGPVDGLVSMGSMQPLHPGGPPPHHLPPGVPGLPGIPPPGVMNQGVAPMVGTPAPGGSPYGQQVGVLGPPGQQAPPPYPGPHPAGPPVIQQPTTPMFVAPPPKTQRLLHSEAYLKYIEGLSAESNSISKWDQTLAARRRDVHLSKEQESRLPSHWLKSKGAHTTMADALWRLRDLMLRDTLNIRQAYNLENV

These are yes or no findings as the source states them, for the method shown. Some results given as binding are weak or reduced against the parent protein; the word gives no strength.

PBRM1 (from UniProt Q86U86 1-1689): the binding result is “binds”.

For the origin of these results see PMC8321896.
